Values from PubChem BioAssay AID504774 (Drosophila RNAi Screening Center, 2011).
Assay: 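Fly genes whose loss alters survival after alkylation damage to DNA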 (primary screen). Cells: Drosophila Kc167 cells. Reagents: long dsRNA against Drosophila genes, about 0.25 µg dsRNA per well. Timing: about 6 days: 3 days knock-down, then 3 days with or without MMS. Conditions: methyl methanesulphonate 0.004% (w/v) for 3 days after knock-down. Read-out: 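Viability in wells given MMS, read as ATP luminescence, normalised by quantiles plate by plate and averaged across replicates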. Direction: mean viability with MMS and viability with MMS: higher = more surviving cells after MMS.
The deposit covers about 23,000 reagents; below is an unselected part of those with a known target gene and a result. 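Values are quantile-normalised luminescence on an arbitrary scale; higher means more cells surviving MMS.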 The numbers tell different reagents against one gene apart. A plus sign joins genes that one reagent is predicted to hit.

predicted target,reagent,mean viability with MMS,"viability with MMS, replicate 1","viability with MMS, replicate 2"
CG17841,1,3.50e6,3.93e6,3.70e6
cocoon,1,3.58e6,3.95e6,4.16e6
CG18539,1,3.68e6,4.10e6,4.20e6
Tmtc3,1,3.70e6,4.06e6,4.28e6
Wdr24,1,3.58e6,4.07e6,4.05e6
CG15209,1,3.60e6,4.06e6,4.07e6
CG6761,1,3.41e6,3.88e6,3.88e6
U3-55K,1,3.44e6,3.79e6,3.93e6
apn,1,3.53e6,3.90e6,4.11e6
dpr5,1,3.64e6,4.04e6,4.13e6
pippin,1,3.38e6,3.77e6,3.67e6
CG15118,1,3.60e6,4.10e6,4.08e6
CG32988,1,3.37e6,3.68e6,3.90e6
CG5890,1,3.69e6,3.99e6,4.37e6
CG17249,1,3.56e6,4.00e6,4.07e6
CG7387,1,3.46e6,3.93e6,3.91e6
CG34269,1,3.54e6,4.03e6,4.01e6
CG13850,1,3.61e6,4.10e6,4.05e6
slim,1,3.52e6,3.92e6,4.08e6
Ibf2,1,3.29e6,3.70e6,3.85e6
Atac1,1,3.79e6,4.25e6,4.19e6
Top1,1,3.44e6,3.97e6,3.80e6
CG6006,1,3.53e6,4.05e6,3.97e6
CG6006,2,3.60e6,4.10e6,4.05e6
geko,1,3.61e6,4.03e6,4.14e6
geko,2,3.55e6,3.91e6,4.16e6
Gr36c,1,3.49e6,4.06e6,3.87e6
Abcd3,1,3.44e6,3.89e6,3.92e6
TBC1D23,1,3.65e6,4.21e6,4.12e6
Gpo2,1,3.61e6,4.07e6,4.07e6
mthl12,1,3.51e6,4.00e6,3.96e6
Gpo3,1,3.62e6,4.17e6,4.02e6
CG42299 + CG42300,1,3.74e6,4.24e6,4.12e6
CG42299 + CG42300,2,3.63e6,4.16e6,4.04e6
byn,1,3.89e6,4.34e6,4.39e6
Ube4A,1,3.44e6,3.94e6,3.76e6
Smn,1,3.40e6,3.75e6,3.94e6
Rh6,1,3.40e6,3.85e6,3.85e6
CG8388,1,3.50e6,3.92e6,4.01e6
Mob3,1,3.40e6,4.02e6,3.64e6
CG6357,1,3.74e6,4.27e6,4.21e6
CG34319 (retired record),1,3.31e6,3.25e6,3.85e6
Or24a,1,3.33e6,4.03e6,3.43e6
Rbp6,1,3.63e6,4.08e6,4.13e6
Rbp6,2,3.45e6,3.91e6,3.95e6
Rbp6,3,3.42e6,3.76e6,3.96e6
Rbp6,4,3.44e6,3.74e6,4.03e6
Rbp6,5,3.43e6,3.78e6,3.95e6

Laid out differently: 6 of the entries above.
TBC1D23
- mean viability with MMS: 3.65e6
- viability with MMS, replicate 1: 4.21e6
- viability with MMS, replicate 2: 4.12e6

Gpo2
- mean viability with MMS: 3.61e6
- viability with MMS, replicate 1: 4.07e6
- viability with MMS, replicate 2: 4.07e6

mthl12
- mean viability with MMS: 3.51e6
- viability with MMS, replicate 1: 4.00e6
- viability with MMS, replicate 2: 3.96e6

Gpo3
- mean viability with MMS: 3.62e6
- viability with MMS, replicate 1: 4.17e6
- viability with MMS, replicate 2: 4.02e6

CG42299 + CG42300 #1
- mean viability with MMS: 3.74e6
- viability with MMS, replicate 1: 4.24e6
- viability with MMS, replicate 2: 4.12e6

CG42299 + CG42300 #2
- mean viability with MMS: 3.63e6
- viability with MMS, replicate 1: 4.16e6
- viability with MMS, replicate 2: 4.04e6
